Test results from the supplement of paper PMC10849652.
The other results are listed elsewhere or left out.

Sequences of proteins named here, by UniProt entry; tags and fusion partners are left off. A change or cut given only in a name is not applied to a line headed by its entry.
UniProt O60493, whole entry, looked up: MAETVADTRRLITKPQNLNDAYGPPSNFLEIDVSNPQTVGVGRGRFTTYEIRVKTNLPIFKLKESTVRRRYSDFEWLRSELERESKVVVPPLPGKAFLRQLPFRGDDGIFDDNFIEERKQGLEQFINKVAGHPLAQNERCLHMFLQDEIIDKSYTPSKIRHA
UniProt Q6GMV2: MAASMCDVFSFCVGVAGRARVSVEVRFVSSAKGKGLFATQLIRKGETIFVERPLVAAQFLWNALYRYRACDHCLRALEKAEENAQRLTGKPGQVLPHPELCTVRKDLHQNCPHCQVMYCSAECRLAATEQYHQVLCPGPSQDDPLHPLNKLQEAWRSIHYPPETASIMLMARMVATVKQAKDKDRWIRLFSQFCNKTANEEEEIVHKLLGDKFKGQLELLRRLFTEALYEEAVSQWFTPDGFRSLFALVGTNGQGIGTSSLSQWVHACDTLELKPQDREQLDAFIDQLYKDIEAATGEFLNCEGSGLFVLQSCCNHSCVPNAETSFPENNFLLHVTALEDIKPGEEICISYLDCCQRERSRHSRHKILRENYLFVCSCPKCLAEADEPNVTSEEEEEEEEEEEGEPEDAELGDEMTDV
UniProt Q7Z3B0: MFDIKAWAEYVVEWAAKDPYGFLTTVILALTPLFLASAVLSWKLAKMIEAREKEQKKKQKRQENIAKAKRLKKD
UniProt O60641: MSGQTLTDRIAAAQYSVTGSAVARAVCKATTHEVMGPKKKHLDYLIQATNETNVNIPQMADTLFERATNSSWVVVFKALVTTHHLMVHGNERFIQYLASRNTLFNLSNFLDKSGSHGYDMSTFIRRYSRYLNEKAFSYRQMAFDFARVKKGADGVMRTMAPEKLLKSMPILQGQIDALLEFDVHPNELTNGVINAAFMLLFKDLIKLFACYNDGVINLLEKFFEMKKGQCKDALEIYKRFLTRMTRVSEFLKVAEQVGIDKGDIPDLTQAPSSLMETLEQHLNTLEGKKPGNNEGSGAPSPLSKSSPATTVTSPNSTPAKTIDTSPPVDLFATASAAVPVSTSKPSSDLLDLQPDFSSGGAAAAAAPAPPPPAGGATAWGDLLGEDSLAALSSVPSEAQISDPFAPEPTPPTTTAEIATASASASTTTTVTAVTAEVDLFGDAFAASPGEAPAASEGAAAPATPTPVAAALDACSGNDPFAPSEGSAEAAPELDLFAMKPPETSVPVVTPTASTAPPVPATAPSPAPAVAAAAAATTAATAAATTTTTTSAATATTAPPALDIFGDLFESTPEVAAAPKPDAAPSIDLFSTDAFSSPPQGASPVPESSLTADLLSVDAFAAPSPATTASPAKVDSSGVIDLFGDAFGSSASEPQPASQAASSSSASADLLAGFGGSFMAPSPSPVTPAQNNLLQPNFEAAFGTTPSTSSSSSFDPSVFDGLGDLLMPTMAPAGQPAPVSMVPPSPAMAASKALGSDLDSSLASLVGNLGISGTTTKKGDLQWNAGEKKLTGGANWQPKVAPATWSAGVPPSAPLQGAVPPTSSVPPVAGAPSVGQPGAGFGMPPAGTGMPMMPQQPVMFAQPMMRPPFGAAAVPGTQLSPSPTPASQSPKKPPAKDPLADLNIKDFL
UniProt O00161: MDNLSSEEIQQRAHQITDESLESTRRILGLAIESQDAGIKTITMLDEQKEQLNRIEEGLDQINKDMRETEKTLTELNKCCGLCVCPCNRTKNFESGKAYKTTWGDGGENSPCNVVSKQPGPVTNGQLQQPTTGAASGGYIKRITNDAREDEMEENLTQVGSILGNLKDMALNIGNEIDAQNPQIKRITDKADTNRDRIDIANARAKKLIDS
UniProt Q96R06: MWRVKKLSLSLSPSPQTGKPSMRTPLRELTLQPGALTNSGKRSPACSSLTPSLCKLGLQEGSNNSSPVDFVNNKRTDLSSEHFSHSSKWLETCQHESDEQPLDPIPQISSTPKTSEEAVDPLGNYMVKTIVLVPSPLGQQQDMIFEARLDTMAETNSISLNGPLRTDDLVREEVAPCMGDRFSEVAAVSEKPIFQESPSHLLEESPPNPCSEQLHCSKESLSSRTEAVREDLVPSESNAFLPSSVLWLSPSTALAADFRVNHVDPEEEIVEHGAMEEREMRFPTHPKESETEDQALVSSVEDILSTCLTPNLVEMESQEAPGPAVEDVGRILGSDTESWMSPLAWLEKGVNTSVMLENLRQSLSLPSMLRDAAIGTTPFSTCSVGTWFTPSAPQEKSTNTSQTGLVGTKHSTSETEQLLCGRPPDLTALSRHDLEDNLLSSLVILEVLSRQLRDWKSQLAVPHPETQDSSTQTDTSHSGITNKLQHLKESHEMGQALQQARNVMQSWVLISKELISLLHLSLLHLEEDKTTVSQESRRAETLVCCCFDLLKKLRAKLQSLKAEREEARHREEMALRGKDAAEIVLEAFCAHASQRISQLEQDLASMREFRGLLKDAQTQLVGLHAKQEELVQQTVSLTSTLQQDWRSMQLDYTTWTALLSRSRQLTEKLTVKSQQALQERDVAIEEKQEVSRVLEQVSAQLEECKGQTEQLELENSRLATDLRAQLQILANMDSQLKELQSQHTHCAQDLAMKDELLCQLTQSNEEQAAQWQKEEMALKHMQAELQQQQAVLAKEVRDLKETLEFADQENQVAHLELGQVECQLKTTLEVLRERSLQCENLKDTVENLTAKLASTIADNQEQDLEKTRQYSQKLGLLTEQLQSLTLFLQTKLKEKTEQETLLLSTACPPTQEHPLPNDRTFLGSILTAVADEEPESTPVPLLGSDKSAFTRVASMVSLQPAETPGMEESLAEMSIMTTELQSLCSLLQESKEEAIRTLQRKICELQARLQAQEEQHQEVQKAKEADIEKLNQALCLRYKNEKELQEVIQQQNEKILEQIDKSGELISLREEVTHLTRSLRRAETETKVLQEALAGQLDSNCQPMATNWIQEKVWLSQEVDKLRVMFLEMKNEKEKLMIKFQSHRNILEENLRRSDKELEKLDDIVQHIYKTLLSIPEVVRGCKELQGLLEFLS
UniProt P28370, whole entry, looked up: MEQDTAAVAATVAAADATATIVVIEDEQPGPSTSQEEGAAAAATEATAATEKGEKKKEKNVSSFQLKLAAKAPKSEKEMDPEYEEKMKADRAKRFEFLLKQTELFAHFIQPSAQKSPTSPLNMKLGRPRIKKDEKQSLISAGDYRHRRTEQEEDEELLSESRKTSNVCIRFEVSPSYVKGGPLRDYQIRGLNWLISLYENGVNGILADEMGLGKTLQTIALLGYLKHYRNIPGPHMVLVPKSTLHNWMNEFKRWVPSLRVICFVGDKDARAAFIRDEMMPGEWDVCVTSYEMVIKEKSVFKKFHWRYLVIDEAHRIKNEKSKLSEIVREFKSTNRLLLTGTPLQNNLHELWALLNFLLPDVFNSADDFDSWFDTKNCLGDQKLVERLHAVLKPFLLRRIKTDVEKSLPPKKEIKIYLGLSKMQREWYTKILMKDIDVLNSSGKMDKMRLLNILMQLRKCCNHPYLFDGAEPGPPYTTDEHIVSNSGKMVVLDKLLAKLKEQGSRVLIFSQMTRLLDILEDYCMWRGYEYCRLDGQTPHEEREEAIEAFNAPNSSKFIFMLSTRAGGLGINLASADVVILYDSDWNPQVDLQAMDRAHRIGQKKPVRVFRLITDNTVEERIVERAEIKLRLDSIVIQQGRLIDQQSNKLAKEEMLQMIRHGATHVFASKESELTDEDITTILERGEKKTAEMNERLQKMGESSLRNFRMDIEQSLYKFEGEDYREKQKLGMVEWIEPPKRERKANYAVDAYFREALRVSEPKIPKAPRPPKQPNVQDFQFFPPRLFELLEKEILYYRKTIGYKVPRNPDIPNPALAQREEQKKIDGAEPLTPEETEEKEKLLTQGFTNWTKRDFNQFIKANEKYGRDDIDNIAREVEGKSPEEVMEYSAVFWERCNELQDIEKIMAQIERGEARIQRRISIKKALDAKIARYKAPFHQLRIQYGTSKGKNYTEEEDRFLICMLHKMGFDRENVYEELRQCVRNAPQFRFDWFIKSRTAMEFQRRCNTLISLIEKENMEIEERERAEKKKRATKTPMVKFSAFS
UniProt P62308, whole entry, looked up: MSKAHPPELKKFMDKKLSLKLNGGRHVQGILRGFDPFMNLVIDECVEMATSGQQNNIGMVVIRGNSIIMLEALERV
UniProt P57768: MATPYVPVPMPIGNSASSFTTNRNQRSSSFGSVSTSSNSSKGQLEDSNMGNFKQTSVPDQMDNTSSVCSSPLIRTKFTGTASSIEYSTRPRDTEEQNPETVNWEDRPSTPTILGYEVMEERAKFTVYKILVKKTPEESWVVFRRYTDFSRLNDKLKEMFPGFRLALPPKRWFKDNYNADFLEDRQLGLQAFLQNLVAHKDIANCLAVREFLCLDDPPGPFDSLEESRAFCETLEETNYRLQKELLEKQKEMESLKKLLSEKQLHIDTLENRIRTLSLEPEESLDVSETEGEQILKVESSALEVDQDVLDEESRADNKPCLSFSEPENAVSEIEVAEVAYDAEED
UniProt Q13424: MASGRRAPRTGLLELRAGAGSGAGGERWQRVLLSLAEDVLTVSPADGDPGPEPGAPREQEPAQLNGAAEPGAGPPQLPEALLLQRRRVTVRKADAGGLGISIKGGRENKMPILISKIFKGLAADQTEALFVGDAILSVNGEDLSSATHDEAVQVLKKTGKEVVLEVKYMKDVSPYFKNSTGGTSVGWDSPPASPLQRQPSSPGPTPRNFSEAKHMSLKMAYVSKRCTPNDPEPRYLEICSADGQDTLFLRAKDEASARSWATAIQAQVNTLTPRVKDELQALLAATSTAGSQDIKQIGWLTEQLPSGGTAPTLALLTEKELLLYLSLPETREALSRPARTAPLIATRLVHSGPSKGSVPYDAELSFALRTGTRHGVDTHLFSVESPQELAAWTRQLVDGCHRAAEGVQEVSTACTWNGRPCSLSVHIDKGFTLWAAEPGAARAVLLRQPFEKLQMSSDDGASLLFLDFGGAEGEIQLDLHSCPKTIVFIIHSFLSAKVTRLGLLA
UniProt Q9NRG4: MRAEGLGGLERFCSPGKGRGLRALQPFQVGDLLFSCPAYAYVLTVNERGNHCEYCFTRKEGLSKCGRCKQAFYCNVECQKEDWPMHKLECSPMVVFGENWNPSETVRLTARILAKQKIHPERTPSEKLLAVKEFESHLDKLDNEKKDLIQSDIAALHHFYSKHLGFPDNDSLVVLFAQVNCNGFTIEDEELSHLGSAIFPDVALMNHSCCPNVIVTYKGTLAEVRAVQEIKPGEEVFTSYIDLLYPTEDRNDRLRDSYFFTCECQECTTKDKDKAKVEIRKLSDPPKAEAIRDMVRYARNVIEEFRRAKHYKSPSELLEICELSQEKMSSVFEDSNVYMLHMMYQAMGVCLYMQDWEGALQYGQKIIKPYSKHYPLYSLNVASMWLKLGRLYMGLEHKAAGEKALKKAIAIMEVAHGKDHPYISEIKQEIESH
UniProt Q00796: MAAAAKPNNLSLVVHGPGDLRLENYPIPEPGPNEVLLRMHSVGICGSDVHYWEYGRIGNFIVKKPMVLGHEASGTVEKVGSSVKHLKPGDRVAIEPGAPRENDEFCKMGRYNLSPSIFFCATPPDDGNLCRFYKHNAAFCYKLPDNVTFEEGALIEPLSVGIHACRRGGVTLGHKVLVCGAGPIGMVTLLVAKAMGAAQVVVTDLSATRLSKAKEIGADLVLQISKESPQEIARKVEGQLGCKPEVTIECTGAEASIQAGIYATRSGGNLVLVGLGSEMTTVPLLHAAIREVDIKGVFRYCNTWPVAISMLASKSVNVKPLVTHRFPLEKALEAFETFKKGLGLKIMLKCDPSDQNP
UniProt Q14BN4: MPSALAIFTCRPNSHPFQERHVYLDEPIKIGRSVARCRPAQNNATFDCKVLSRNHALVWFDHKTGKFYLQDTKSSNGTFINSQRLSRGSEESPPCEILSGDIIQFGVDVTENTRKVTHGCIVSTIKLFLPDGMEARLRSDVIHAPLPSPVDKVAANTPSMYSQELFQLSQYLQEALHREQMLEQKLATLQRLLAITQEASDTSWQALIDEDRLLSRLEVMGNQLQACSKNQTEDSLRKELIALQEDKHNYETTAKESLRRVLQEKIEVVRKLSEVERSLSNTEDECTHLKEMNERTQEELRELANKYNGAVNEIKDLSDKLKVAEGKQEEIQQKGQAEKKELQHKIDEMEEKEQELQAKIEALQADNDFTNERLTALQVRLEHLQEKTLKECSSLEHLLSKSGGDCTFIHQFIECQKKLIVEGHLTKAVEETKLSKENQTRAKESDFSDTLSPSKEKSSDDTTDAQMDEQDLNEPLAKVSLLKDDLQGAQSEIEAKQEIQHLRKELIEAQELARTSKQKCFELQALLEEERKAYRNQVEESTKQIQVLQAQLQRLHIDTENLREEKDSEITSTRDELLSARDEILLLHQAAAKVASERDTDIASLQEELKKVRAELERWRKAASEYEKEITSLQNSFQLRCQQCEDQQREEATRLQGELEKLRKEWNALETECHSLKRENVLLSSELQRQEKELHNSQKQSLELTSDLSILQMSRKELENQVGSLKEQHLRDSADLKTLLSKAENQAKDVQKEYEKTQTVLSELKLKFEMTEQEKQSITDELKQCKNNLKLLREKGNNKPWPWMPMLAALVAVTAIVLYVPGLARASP

Experiments:
Experiment in all cases: log2 fold change, soluble protein after heating vs DMSO (PISA); higher = thermal stabilisation; K562 cells, 10 uM, 30 min; active = over 0.2 and 3.5 SD of the protein, either way, in both replicates (recomputed)
[1] = compound: CS(=O)(=O)c1ccc(-c2cnc(N)c(C(=O)Nc3ccccc3)n2)cc1
How it was run: (§1)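 K562 cells at 2×10^6 cells/mL were treated for 30 min with 10 μM compound, and aliquots were heated for 3 min over 48°C-58°C before pooling. Extraction used PBS with 0.5% NP-40 at 4°C, and soluble protein was the supernatant after 21,000xg for 90 min, measured by TMTpro 16plex LC-MS/MS with channel sums equalised. Thermal stability values, relative to control samples and from duplicates, are log2 fold changes.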

crizotinib = compound: C[C@@H](Oc1cc(-c2cnn(C3CCNCC3)c2)cnc1N)c1c(Cl)ccc(F)c1Cl [crizotinib]
How it was run: as §1

[2] = compound: C[C@@H]1COCCN1C2=NC(=NC(=C2)C3(CC3)S(=O)(=O)C)C4=C5C=CNC5=CC=C4
How it was run: as §1

[3] = compound: C[C@H](C1=CC=C(C=C1)C(=O)NC2=C3C=CNC3=NC=C2)N
How it was run: as §1

duvelisib = compound: C[C@H](Nc1ncnc2nc[nH]c12)c1cc2cccc(Cl)c2c(=O)n1-c1ccccc1 [duvelisib]
How it was run: as §1

gandotinib = compound: Cc1cc(Nc2cc(CN3CCOCC3)c3nc(C)c(Cc4ccc(Cl)cc4F)n3n2)n[nH]1 [gandotinib]
How it was run: as §1

tozasertib = compound: Cc1cc(Nc2cc(N3CCN(C)CC3)nc(Sc3ccc(NC(=O)C4CC4)cc3)n2)n[nH]1 [tozasertib]
How it was run: as §1

[4] = compound: Cc1cc(SCc2sc(-c3ccc(C(F)(F)F)cc3)nc2C)ccc1OCC(=O)O
How it was run: as §1

doramapimod = compound: Cc1ccc(-n2nc(C(C)(C)C)cc2NC(=O)Nc2ccc(OCCN3CCOCC3)c3ccccc23)cc1 [doramapimod]
How it was run: as §1

ispinesib = compound: Cc1ccc(C(=O)N(CCCN)[C@@H](c2nc3cc(Cl)ccc3c(=O)n2Cc2ccccc2)C(C)C)cc1 [ispinesib]
How it was run: as §1

bafetinib = compound: Cc1ccc(NC(=O)c2ccc(CN3CC[C@H](N(C)C)C3)c(C(F)(F)F)c2)cc1Nc1nccc(-c2cncnc2)n1 [bafetinib]
How it was run: as §1

[5] = compound: Cc1cccc(CC(=O)N2CCc3c2ccc(-c2cn(C)c4ncnc(N)c24)c3F)n1
How it was run: as §1

nilotinib = compound: Cc1cn(-c2cc(NC(=O)c3ccc(C)c(Nc4nccc(-c5cccnc5)n4)c3)cc(C(F)(F)F)c2)cn1 [nilotinib]
How it was run: as §1

[6] = compound: Cc1nc(Nc2n[nH]c3c2CN(C(=O)N[C@H](CN(C)C)c2ccccc2)C3(C)C)c2sccc2n1
How it was run: as §1

dasatinib = compound: Cc1nc(Nc2ncc(C(=O)Nc3c(C)cccc3Cl)s2)cc(N2CCN(CCO)CC2)n1 [dasatinib]
How it was run: as §1

[7] = compound: Cc1ncc(-c2ccnc(Nc3ccc(S(C)(=O)=O)cc3)n2)n1C(C)C
How it was run: as §1

[8] = compound: Cn1cc(-c2ccc3c(c2)CCN3C(=O)Cc2cccc(C(F)(F)F)c2)c2c(N)ncnc21
How it was run: as §1

[9] = compound: Cn1cc(-c2ccc3nnc(C(F)(F)c4ccc5ncccc5c4)n3n2)cn1
How it was run: as §1

tipifarnib = compound: Cn1cncc1[C@@](N)(c1ccc(Cl)cc1)c1ccc2c(c1)c(-c1cccc(Cl)c1)cc(=O)n2C [tipifarnib]
How it was run: as §1

mubritinib = compound: FC(F)(F)c1ccc(/C=C/c2nc(COc3ccc(CCCCn4ccnn4)cc3)co2)cc1 [mubritinib]
How it was run: as §1

Measured: log2 fold change

SMU1 (UniProt Q2TAY7)
inactive: [1] -0.033 | crizotinib -0.008 | [2] 0.002 | [3] -0.029 | duvelisib -0.014 | gandotinib 0.041 | tozasertib -0.01 | [4] 0.02 | doramapimod -0.025 | ispinesib 0.04 | bafetinib 0.066 | [5] 0.019 | nilotinib 0.004 | [6] -0.032 | dasatinib -0.039 | [7] 0.034 | [8] -0.077 | [9] -0.02 | tipifarnib -0.008 | mubritinib -0.017

SNX3 (UniProt O60493)
inactive: [1] -0.035 | crizotinib -0.106 | [2] 0.062 | [3] 0.048 | gandotinib -0.164 | [4] 0.085 | doramapimod 0.04 | ispinesib -0.141 | bafetinib 0.01 | [5] 0.032 | nilotinib -0.034 | [6] 0.035 | dasatinib -0.163 | [8] -0.03 | [9] 0.001 | tipifarnib 0.019 | mubritinib -0.108
active: duvelisib -0.385 | [7] -0.339

SMYD5 (UniProt Q6GMV2)
inactive: [1] -0.026 | crizotinib 0.085 | [2] 0.045 | [3] -0.049 | duvelisib 0.063 | gandotinib 0.011 | tozasertib 0.018 | [4] -0.02 | doramapimod -0.007 | ispinesib 0.077 | bafetinib -0.033 | [5] 0.002 | nilotinib -0.035 | [6] -0.019 | dasatinib -0.017 | [7] 0 | [8] 0.024 | [9] -0.026 | tipifarnib -0.012 | mubritinib -0.017

SMIM15 (UniProt Q7Z3B0)
inactive: [1] 0 | crizotinib 0.023 | [2] 0.172 | [3] -0.247 | duvelisib -0.084 | gandotinib 0.145 | tozasertib -0.027 | [4] 0.034 | doramapimod 0.114 | bafetinib 0.072 | [5] 0.137 | nilotinib 0.141 | [6] -0.026 | dasatinib 0.004 | [7] 0.007 | [8] 0.036 | mubritinib -0.009

SNAP91 (UniProt O60641)
inactive: [1] 0.046 | crizotinib 0.005 | [2] -0.252 | [3] -0.018 | duvelisib 0.022 | gandotinib -0.052 | tozasertib -0.053 | [4] -0.128 | doramapimod -0.106 | ispinesib 0.018 | bafetinib -0.088 | [5] 0.134 | nilotinib 0 | [6] -0.098 | dasatinib -0.054 | [7] 0.004 | [8] 0.053 | [9] -0.068 | mubritinib 0.08

SNAP23 (UniProt O00161)
inactive: [1] 0.032 | crizotinib 0.031 | [2] 0.032 | [3] 0.01 | duvelisib 0.01 | gandotinib 0.009 | tozasertib -0.014 | [4] -0.047 | doramapimod 0.007 | ispinesib 0.006 | bafetinib -0.019 | [5] -0.012 | nilotinib 0.023 | [6] -0.016 | dasatinib 0.055 | [7] -0.021 | [8] -0.013 | [9] 0.007 | tipifarnib 0.025 | mubritinib -0.016

SNCA (UniProt P37840)
inactive: [1] 0.024 | crizotinib 0.048 | [2] 0.052 | [3] -0.014 | duvelisib 0.041 | gandotinib 0.006 | tozasertib -0.063 | [4] -0.071 | doramapimod -0.036 | ispinesib -0.014 | bafetinib -0.023 | [5] -0.019 | nilotinib 0.001 | [6] 0.031 | dasatinib 0.01 | [7] 0 | [8] 0.085 | [9] 0.014 | tipifarnib -0.048 | mubritinib 0.063

SPAG5 (UniProt Q96R06)
inactive: [1] 0.028 | crizotinib -0.175 | [2] -0.136 | [3] 0.242 | duvelisib -0.069 | gandotinib 0.004 | tozasertib 0.107 | [4] 0.06 | doramapimod 0.234 | ispinesib -0.435 | bafetinib 0.111 | [5] -0.055 | nilotinib -0.105 | [6] -0.172 | dasatinib -0.007 | [7] 0.046 | [8] -0.156 | [9] -0.04 | tipifarnib -0.091 | mubritinib -0.257

SMARCC2 (UniProt Q8TAQ2)
inactive: [1] 0.078 | crizotinib -0.202 | [2] 0.045 | [3] 0.195 | duvelisib -0.03 | gandotinib -0.038 | tozasertib 0.167 | [4] 0.182 | doramapimod -0.006 | ispinesib -0.009 | bafetinib -0.06 | [5] 0.033 | nilotinib -0.043 | [6] -0.009 | dasatinib -0.14 | [7] 0.048 | [8] -0.048 | [9] 0.168 | tipifarnib -0.097 | mubritinib 0.175

SMARCA1 (UniProt P28370)
inactive: [1] -0.006 | crizotinib 0.015 | [2] 0.06 | [3] 0.159 | duvelisib 0.094 | gandotinib -0.433 | tozasertib 0.125 | [4] 0.095 | doramapimod 0.354 | ispinesib -0.173 | bafetinib 0.094 | [5] 0.056 | dasatinib -0.114 | [8] -0.111 | [9] 0.063 | tipifarnib 0.006 | mubritinib 0.239

SNRPG (UniProt P62308)
inactive: [1] -0.02 | crizotinib 0.107 | [2] 0.007 | [3] -0.007 | duvelisib 0.008 | gandotinib 0.023 | tozasertib 0 | [4] -0.036 | doramapimod 0.001 | ispinesib 0.033 | bafetinib -0.019 | [5] -0.086 | nilotinib 0.005 | [6] 0.075 | dasatinib 0.053 | [7] 0.04 | [8] -0.016 | [9] -0.013 | tipifarnib 0.009 | mubritinib 0.004

SNX16 (UniProt P57768)
inactive: [1] 0.037 | crizotinib 0.069 | [2] 0.097 | [3] 0.227 | duvelisib 0.05 | gandotinib -0.182 | [4] -0.009 | doramapimod -0.125 | ispinesib -0.15 | bafetinib 0.042 | [5] 0.101 | nilotinib -0.001 | [6] 0.059 | dasatinib -0.05 | [7] -0.039 | [8] -0.104 | [9] 0 | tipifarnib -0.056 | mubritinib 0.101

SNTA1 (UniProt Q13424)
inactive: [1] -0.087 | crizotinib 0.176 | [2] 0.087 | [3] -0.001 | duvelisib 0.065 | gandotinib -0.16 | tozasertib -0.055 | [4] 0.033 | doramapimod 0.023 | ispinesib 0.088 | bafetinib -0.145 | [5] 0.072 | nilotinib 0.112 | [6] -0.018 | dasatinib -0.072 | [7] -0.098 | [8] -0.067 | [9] -0.072 | tipifarnib -0.07 | mubritinib 0.006

SNRPD2 (UniProt P62316)
inactive: [1] -0.036 | crizotinib -0.001 | [2] -0.074 | [3] 0.008 | duvelisib -0.094 | gandotinib 0.101 | tozasertib -0.001 | [4] -0.094 | doramapimod 0 | ispinesib 0.074 | bafetinib 0.002 | [5] -0.03 | nilotinib 0.039 | [6] 0.06 | dasatinib 0.144 | [7] 0.074 | [8] -0.104 | [9] -0.026 | tipifarnib 0.046 | mubritinib 0.016

SMYD2 (UniProt Q9NRG4)
inactive: [1] 0.156 | crizotinib -0.139 | [2] 0.033 | [3] 0.322 | duvelisib -0.097 | gandotinib -0.085 | tozasertib 0.14 | [4] 0.095 | doramapimod 0.063 | ispinesib -0.082 | bafetinib 0.018 | [5] 0.011 | dasatinib -0.097 | [8] 0.111 | [9] -0.136 | tipifarnib -0.121 | mubritinib 0.014

SORD (UniProt Q00796)
inactive: [1] 0.035 | crizotinib 0.031 | [2] 0.047 | [3] -0.021 | duvelisib 0.017 | gandotinib 0.007 | tozasertib -0.022 | [4] -0.052 | doramapimod -0.05 | ispinesib 0.051 | bafetinib -0.029 | [5] -0.029 | nilotinib 0.014 | [6] 0 | dasatinib 0.016 | [7] 0.003 | [8] 0.06 | [9] 0.018 | tipifarnib 0 | mubritinib 0.032

Taken from above (5 entries):
SMARCA1 (UniProt P28370)
inactive: [1] -0.006 | crizotinib 0.015 | [2] 0.06 | [3] 0.159 | duvelisib 0.094 | gandotinib -0.433 | tozasertib 0.125 | [4] 0.095 | doramapimod 0.354 | ispinesib -0.173 | bafetinib 0.094 | [5] 0.056 | dasatinib -0.114 | [8] -0.111 | [9] 0.063 | tipifarnib 0.006 | mubritinib 0.239

SNRPG (UniProt P62308)
inactive: [1] -0.02 | crizotinib 0.107 | [2] 0.007 | [3] -0.007 | duvelisib 0.008 | gandotinib 0.023 | tozasertib 0 | [4] -0.036 | doramapimod 0.001 | ispinesib 0.033 | bafetinib -0.019 | [5] -0.086 | nilotinib 0.005 | [6] 0.075 | dasatinib 0.053 | [7] 0.04 | [8] -0.016 | [9] -0.013 | tipifarnib 0.009 | mubritinib 0.004

SNX16 (UniProt P57768)
inactive: [1] 0.037 | crizotinib 0.069 | [2] 0.097 | [3] 0.227 | duvelisib 0.05 | gandotinib -0.182 | [4] -0.009 | doramapimod -0.125 | ispinesib -0.15 | bafetinib 0.042 | [5] 0.101 | nilotinib -0.001 | [6] 0.059 | dasatinib -0.05 | [7] -0.039 | [8] -0.104 | [9] 0 | tipifarnib -0.056 | mubritinib 0.101

SNTA1 (UniProt Q13424)
inactive: [1] -0.087 | crizotinib 0.176 | [2] 0.087 | [3] -0.001 | duvelisib 0.065 | gandotinib -0.16 | tozasertib -0.055 | [4] 0.033 | doramapimod 0.023 | ispinesib 0.088 | bafetinib -0.145 | [5] 0.072 | nilotinib 0.112 | [6] -0.018 | dasatinib -0.072 | [7] -0.098 | [8] -0.067 | [9] -0.072 | tipifarnib -0.07 | mubritinib 0.006

SNRPD2 (UniProt P62316)
inactive: [1] -0.036 | crizotinib -0.001 | [2] -0.074 | [3] 0.008 | duvelisib -0.094 | gandotinib 0.101 | tozasertib -0.001 | [4] -0.094 | doramapimod 0 | ispinesib 0.074 | bafetinib 0.002 | [5] -0.03 | nilotinib 0.039 | [6] 0.06 | dasatinib 0.144 | [7] 0.074 | [8] -0.104 | [9] -0.026 | tipifarnib 0.046 | mubritinib 0.016

Following part:

SLMAP (UniProt Q14BN4)
inactive: [1] -0.059 | crizotinib 0.015 | [2] -0.034 | [3] 0.096 | duvelisib -0.017 | gandotinib 0.023 | tozasertib 0.033 | [4] 0.018 | doramapimod 0.072 | ispinesib 0.012 | bafetinib 0.004 | [5] -0.052 | nilotinib -0.062 | [6] -0.16 | dasatinib 0.007 | [7] 0.006 | [8] -0.116 | [9] 0.09 | tipifarnib 0.005 | mubritinib 0.054
